Results are given in words; binding and its absence hold for the method and conditions named. Binding seen in cells or lysates may run through a third protein. A result given as binding can be weak or reduced; the word gives no strength.
Biological target: His6-ΔNJcdIΔCΔC (D. discoideum)
Test: co-purification (Ni2+ affinity + gel filtration); His6-ΔNJcdIΔCΔC and Skp1A co-expressed in E. coli; co-eluted from His-Trap at 250 mM imidazole (0.5 M NaCl) and purified over Superdex200 in 50 mM Hepes-NaOH pH 7.4, 50 mM NaCl, 10% glycerol, 2 mM DTT; SDS-PAGE and Western blot

binding: binds
B1: Skp1A (Dictyostelium, recombinant from E. coli) (protein, UniProt P52285 1-162)
chain: MSLVKLESSDEKVFEIEKEIACMSVTIKNMIEDIGESDSPIPLPNVTSTILEKVLDYCRHHHQHPSPQGDDKKDEKRLDDIPPYDRDFCKVDQPTLFELILAANYLDIKPLLDVTCKTVANMIRGKTPEEIRKIFNIKNDFTPEEEEQIRKENEWCEDKGGN
